Record: PubChem BioAssay AID1508597 (Cure First, 2020)

- Assay: 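Knock-downs altering ovarian cancer cell survival with or without PARP inhibitor rucaparib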 (primary screen)
- Cells: human ovarian carcinoma lines grown from tumours: OCI-P5x (papillary serous) and OCI-C5x (clear cell)
- Reagent: siRNA pool against human genes, 1.25 pmol siRNA per well
- Time to read-out: 72 h or 96 h, depending on the cell culture
- Challenge: rucaparib 20 µM (about IC30) or vehicle, present until read-out
- Rucaparib or vehicle: Vehicle
- Cell line: OCI-C5x (clear cell)
- Measurement: 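Luminescent ATP-based viability assay read 72 or 96 h after transfection, depending on culture, given as normalised percent viability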
- Scale: viability, normalised: higher = more viable cells remaining
- Rule for the call: 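Active when normalised viability falls below 80 percent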
- Meaning of the calls: active = viability under 80%; inactive = viability 80% or more
Shown is an unselected part of the about 2,100 reagents, under one of the conditions tested. 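Calls flag viability under 80% in either arm, not effects specific to rucaparib; the reference for percent is not stated.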 Unmarked entries are inactive. Some reagents were tested in more than one well and are listed for each. The record does not give: the 100% reference.

| target | PubChem SID | technical replicate | viability, normalised (%) |
| --- | --- | --- | --- |
| ACTR8 (GeneID 93973) | SID405527950 | 1 | 66 (active) |
| ACTR8 (GeneID 93973) | SID405527950 | 2 | 39.9 (active) |
| ACTR8 (GeneID 93973) | SID405527950 | 3 | 54.4 (active) |
| BRSK1 (GeneID 84446) | SID405527929 | 1 | 54.4 (active) |
| BRSK1 (GeneID 84446) | SID405527929 | 2 | 66.3 (active) |
| BRSK1 (GeneID 84446) | SID405527929 | 3 | 47.7 (active) |
| TERF2 (GeneID 7014) | SID405526552 | 1 | 64.9 (active) |
| TERF2 (GeneID 7014) | SID405526552 | 1 | 60.6 (active) |
| TERF2 (GeneID 7014) | SID405526552 | 2 | 46 (active) |
| TERF2 (GeneID 7014) | SID405526552 | 2 | 81.4 |
| TERF2 (GeneID 7014) | SID405526552 | 3 | 45 (active) |
| TERF2 (GeneID 7014) | SID405526552 | 3 | 42.7 (active) |
| CDK20 (GeneID 23552) | SID405527773 | 1 | 45 (active) |
| CDK20 (GeneID 23552) | SID405527773 | 2 | 44.9 (active) |
| CDK20 (GeneID 23552) | SID405527773 | 3 | 42.5 (active) |
| FN3K (GeneID 64122) | SID405527709 | 1 | 47.6 (active) |
| FN3K (GeneID 64122) | SID405527709 | 2 | 69.4 (active) |
| FN3K (GeneID 64122) | SID405527709 | 3 | 44.6 (active) |
| INSR (GeneID 3643) | SID405527394 | 1 | 82.6 |
| INSR (GeneID 3643) | SID405527394 | 2 | 74.3 (active) |
| INSR (GeneID 3643) | SID405527394 | 3 | 66.2 (active) |
| MAST2 (GeneID 23139) | SID405527838 | 1 | 63.6 (active) |
| MAST2 (GeneID 23139) | SID405527838 | 2 | 63.1 (active) |
| MAST2 (GeneID 23139) | SID405527838 | 3 | 49.2 (active) |
| ITK (GeneID 3702) | SID405527566 | 1 | 67.4 (active) |
| ITK (GeneID 3702) | SID405527566 | 2 | 54.8 (active) |
| ITK (GeneID 3702) | SID405527566 | 3 | 51.4 (active) |
| DICER1 (GeneID 23405) | SID405528225 | 1 | 55.4 (active) |
| DICER1 (GeneID 23405) | SID405528225 | 2 | 47.4 (active) |
| DICER1 (GeneID 23405) | SID405528225 | 3 | 44.9 (active) |
| APBB1 (GeneID 322) | SID405527965 | 1 | 24.4 (active) |
| APBB1 (GeneID 322) | SID405527965 | 2 | 30.1 (active) |
| APBB1 (GeneID 322) | SID405527965 | 3 | 27.7 (active) |
| EYA3 (GeneID 2140) | SID405526770 | 1 | 52.4 (active) |
| EYA3 (GeneID 2140) | SID405526770 | 2 | 42.2 (active) |
| EYA3 (GeneID 2140) | SID405526770 | 3 | 60.8 (active) |
| KTI12 (GeneID 112970) | SID405526947 | 1 | 61.3 (active) |
| KTI12 (GeneID 112970) | SID405526947 | 2 | 71.1 (active) |
| KTI12 (GeneID 112970) | SID405526947 | 3 | 70.2 (active) |

3 of these entries, set out differently.
target | PubChem SID | technical replicate | viability, normalised (%)
EYA3 (GeneID 2140) | SID405526770 | 1 | 52.4 (active)
EYA3 (GeneID 2140) | SID405526770 | 2 | 42.2 (active)
EYA3 (GeneID 2140) | SID405526770 | 3 | 60.8 (active)
